Screen size: about 360,000 compounds; about 10,000 (2.8%) were called active. Inconclusive results, whose numbers are uncertain, are shown with a selection of clear calls. Calls come from the whole dose curve; as a rule, active = well fitted inhibition curve with a large enough effect; inconclusive = small, poorly fitted or top-dose-only effect; inactive = flat fitted curve, though single readings scatter. Potencies of inconclusive entries are doubtful fits and often do not repeat.
Each compound was assayed against Serine/threonine-protein kinase PLK1 (Homo sapiens) (UniProt P53350) (assay: qHTS for Inhibitors of PLK1-PDB (polo-like kinase 1 - polo-box domain): Primary Screen). Conditions: Plk1 PBD binding of FITC phosphopeptide, fluorescence polarization.
% is set by controls: 0 for no effect and ±100 for the full control effect; potency is the fitted concentration of half-maximal effect.
Note: nearly all actives have a fitted effect of over 65% in size.
Throughout, for max response, negative = inhibition: series mostly up to about 57 µM.

Chains of the proteins cited; added tags and fusions are not shown.
UniProt P53350, whole entry, looked up: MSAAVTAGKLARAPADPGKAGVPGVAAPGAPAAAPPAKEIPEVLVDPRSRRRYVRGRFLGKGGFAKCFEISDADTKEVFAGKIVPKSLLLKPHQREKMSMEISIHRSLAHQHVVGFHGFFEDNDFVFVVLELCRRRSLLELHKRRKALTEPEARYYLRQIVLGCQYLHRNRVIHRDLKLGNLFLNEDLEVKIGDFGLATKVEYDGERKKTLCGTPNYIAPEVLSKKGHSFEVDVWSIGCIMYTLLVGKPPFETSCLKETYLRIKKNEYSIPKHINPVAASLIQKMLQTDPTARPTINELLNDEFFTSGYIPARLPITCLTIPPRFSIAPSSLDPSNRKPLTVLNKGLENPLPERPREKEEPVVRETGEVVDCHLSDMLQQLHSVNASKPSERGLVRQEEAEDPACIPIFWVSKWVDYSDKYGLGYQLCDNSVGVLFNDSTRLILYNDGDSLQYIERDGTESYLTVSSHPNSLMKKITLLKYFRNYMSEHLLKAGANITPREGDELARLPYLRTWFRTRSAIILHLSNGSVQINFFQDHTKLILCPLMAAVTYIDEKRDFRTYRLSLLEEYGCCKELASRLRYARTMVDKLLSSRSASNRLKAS

SMILES	Potency	max response, negative = inhibition
COc1ccc(-c2[nH]ncc2-c2nc(C)cs2)c(O)c1	inconclusive: 23.8 µM [inhibitor, single point]	
CCOc1cc(N2CCOCC2)c(OCC)cc1NC(C)C(=O)N1CCN(CC)CC1 (centres undefined)	inconclusive: 21.2 µM [inhibitor, single point]	
N#C/C(=C\c1ccco1)C(=O)NCc1ccccc1	inconclusive: 8.44 µM [inhibitor, single point]	
C=CCn1c(C)csc1=Nc1ccccc1C	active: 29.9 µM	
COc1ccc2[nH]c3c(c2c1)CCN1C(=O)C(CC(=O)NC/C=C(\C)CCC=C(C)C)C[C@H](C(=O)N(C(C)C)C(C)C)[C@@]31C (some centres undefined)		inactive: -3.85%
[O-]C(=C(C(=S)Nc1cccc2ccccc12)[n+]1ccccc1)c1ccc2c(c1)OCCO2	inconclusive: 33.6 µM [inhibitor, partial curve]	
CCOc1ccc2nc(Cl)c(C3CC(c4ccco4)=NN3S(=O)(=O)c3ccccc3)cc2c1 (centres undefined)	inconclusive: 75.2 µM [inhibitor, partial curve]	
O=C(/C=C/c1ccco1)NCc1ccc(F)cc1	inconclusive: 26.7 µM [inhibitor, single point]	
Cc1ccc(-c2cc3c(nn2)-c2ccccc2C3=O)cc1	inconclusive: 21.2 µM [inhibitor, partial curve]	
CCOC(=O)c1cc2n(c1N)-c1ccccc1C2=O	active: 2.67 µM	
N#Cc1c(NC(=O)c2cc(C3CC3)on2)sc2c1CCC2	active: 26.7 µM	
O=C(Nc1ccc2c(c1)OCCO2)c1cccnc1	inconclusive: 33.6 µM [inhibitor, partial curve]	
CCCCN(C(=O)c1cccc(-n2cccc2)c1)c1c(N)n(CCC)c(=O)[nH]c1=O	inconclusive: 37.7 µM [inhibitor, single point]	
Cc1ccc(/C=C/C(=O)NCC2COc3ccccc3O2)o1 (centres undefined)	inconclusive: 23.8 µM [inhibitor, partial curve]	
COc1ccc(NC(=O)CCCn2c(=O)oc3ccccc32)cc1Cl		inactive: -2.18%
Cc1cc(C(=O)COc2ccccc2Cl)c(C)n1-c1ccc2c(c1)OCO2		inactive: 2.77%
COc1ccc([C@H]2[C@H](C(C)=O)N3N=Cc4ccccc4C3C23C(=O)OC(C)(C)OC3=O)cc1 (some centres undefined)	inconclusive: 23.8 µM [inhibitor, partial curve]	
C=CCOC(=O)C1=C(C)NC(SCC(=O)N(CC)CC)=C(C#N)C1c1ccccc1 (centres undefined)	inconclusive: 29.9 µM [inhibitor, partial curve]	
Cc1cc(N2CCCC2)nc2ccc(NC(=S)NC(C)C)cc12	inconclusive: 21.2 µM [inhibitor, partial curve]	
CN1CCN(C(CNS(=O)(=O)c2ccc([N+](=O)[O-])cc2)c2ccc(F)cc2)CC1 (centres undefined)		inactive: -8.75%
COc1ccccc1N1CCN(C2CCCN(C(=O)c3ccccn3)C2)CC1 (centres undefined)	inconclusive: 29.9 µM [inhibitor, partial curve]	
Cc1sc2ccccc2[n+]1CC(=O)O		inconclusive: -34.5% [inhibitor]
CCCCn1c(SCc2nnc(-c3ccccc3)o2)nc2c1c(=O)n(C)c(=O)n2C		inactive: -1.26%
CCN1C(C)=C(C)S/C1=C1\SC(=S)N(N)C1=O		inactive: -10.4%
Cc1c(NC(=S)NC(=O)CC(C)C)c(=O)n(-c2ccccc2)n1C	inconclusive: 26.7 µM [inhibitor, single point]	

SMILES	Potency	max response, negative = inhibition
O=C(Cn1nc(Cl)nc1Cl)Nc1ccccc1		inactive: -0.601%
Cc1cc2c(=O)n(C)c(SCC(=O)Nc3cccc(O)c3)nc2s1		inconclusive: -33.9% [inhibitor]
O=C(NCCNC(=O)c1ccc(Br)o1)c1ccc(Br)o1	inconclusive: 23.8 µM [inhibitor, partial curve]	
Cc1cc(/C=C2/C(=N)N3C(=NC2=O)SN=C3S(C)(=O)=O)c(C)n1-c1ccccc1F	inconclusive: 26.7 µM [inhibitor, single point]	
Cc1ccc(Oc2ccc(/C=N/O)cn2)cc1	active: 3.36 µM	
Cc1cccc(OC(=O)Cn2c(C(F)(F)F)nc3ccccc32)c1	active: 21.2 µM	
Cc1ccccc1N1C(=O)c2cccc3c(N(C)CCO)ccc(c23)C1=O	inconclusive: 21.2 µM [inhibitor, partial curve]	
N#CC1=C(N)Oc2n[nH]c(-c3ccc(F)cc3)c2C1c1cccnc1 (centres undefined)	inconclusive: 33.6 µM [inhibitor, single point]	
CCn1nc(CC(C)C)cc1C(=O)N1CCCC(Nc2ccc(OC)cc2)C1 (centres undefined)	active: 26.7 µM	
Oc1ccc(Cn2ccnc2)c2cccnc12		inactive: 3.88%
CCOC(=O)C1=C(COc2ccc(F)cc2Cl)NC(=O)NC1c1cc(C)ccc1C (centres undefined)	inconclusive: 37.7 µM [inhibitor, single point]	
Cc1cccc[n+]1C1C(c2ccccc2)C(C#N)=C(C(=C=[N-])C#N)NC1(O)C1CC1 (centres undefined)	inconclusive: 37.7 µM [inhibitor, single point]	
CCC(C)CCCCCCCCCCC(=O)O (centres undefined)	active: 21.2 µM	
CCOC(=O)CSc1nnc(CNc2ccc(Cl)cc2)n1Cc1ccccc1		inactive: -5.09%
N#C/C(=C\c1cccs1)C(=O)c1ccccc1Cl	active: 1.5 µM	
Cc1nn(-c2cccc(Cl)c2)c2c1C(c1cccnc1)C(C#N)=C(N)O2 (centres undefined)	inconclusive: 26.7 µM [inhibitor, single point]	
C=CSc1sc(Cl)c(N(CC)CC)c1[N+](=O)[O-]		inconclusive: -32.1% [inhibitor]
N#Cc1cccc(NS(=O)(=O)c2ccccc2Cl)c1	inconclusive: 29.9 µM [inhibitor, partial curve]	
COCCNC(=S)c1ccc(OC)cc1	active: 26.7 µM	
COc1ccc(CCNc2nc(C)nc3c2oc2ccccc23)cc1OC		inactive: -5.6%
CC(NNC(=S)N1CCCCCC1)c1ccc2ccccc2n1 (centres undefined)	inconclusive: 26.7 µM [inhibitor, single point]	
COc1ccc(-c2cnn(-c3ccccc3)c2N)cc1OC	inconclusive: 15 µM [inhibitor, partial curve]	
COc1ccc(N2CCN(C(=O)CCC(=O)N3CCOc4ccc(Cl)cc43)CC2)cc1		inactive: -10.2%
Nc1nnc(/C=C/c2ccccc2Cl)s1	inconclusive: 13.4 µM [inhibitor, partial curve]	
CCOC(=O)C(Sc1ncc(C#N)c(N)n1)C(C)C (centres undefined)	active: 11.9 µM	

A different layout for some results above.
SMILES | Potency | max response, negative = inhibition
CCOC(=O)C1=C(COc2ccc(F)cc2Cl)NC(=O)NC1c1cc(C)ccc1C (centres undefined) | inconclusive: 37.7 µM [inhibitor, single point] | 
Cc1cccc[n+]1C1C(c2ccccc2)C(C#N)=C(C(=C=[N-])C#N)NC1(O)C1CC1 (centres undefined) | inconclusive: 37.7 µM [inhibitor, single point] | 

Additional records

SMILES	Potency	max response, negative = inhibition
O=C(Nc1cc(S(=O)(=O)N2CCOCC2)ccc1N1CCCCC1)c1cc(-c2ccccn2)nc2ccccc12	active: 4.23 µM	
CN(C(=S)SCc1ccccc1)C1CCS(=O)(=O)C1 (centres undefined)		inactive: -12.7%
COCCNC(=O)C1CCCN(Cc2ccccc2-c2ccccc2)CC1 (centres undefined)		inactive: -3.14%
Cc1nc(CSc2nsc(C)c2C#N)cs1		inactive: -12.4%
N#C/C(=N\Nc1ccc(S(=O)(=O)N2CCCCC2)cc1)C(N)=S	inconclusive: 10.6 µM [inhibitor, partial curve]	
CC1CCC/C=C/C(=O)c2c(O)cc(O)cc2CC(=O)O1 (centres undefined)	inconclusive: 23.8 µM [inhibitor, partial curve]	
COC(=O)c1[nH]c(C)c(/C(O)=C2\C(=O)C(=O)N(CCN3CCOCC3)C2c2cccnc2)c1C (centres undefined)		inactive: -11.9%
COc1ccccc1-c1c(C)nn2c(C)c(C(C)=O)cnc12	inconclusive: 26.7 µM [inhibitor, single point]	
COC(=O)c1cc2sc(Cl)cc2n1Cc1nc(-c2ccccc2)oc1C		inactive: -1.54%
Cc1cc(NC(=O)CSCC(=O)N2CCN(c3ccccc3)CC2)no1		inactive: -3.14%
CC(C)(C)N(NS(=O)(=O)c1ccc(F)cc1)c1ccccc1	inconclusive: 10.6 µM [inhibitor, partial curve]	
NC(=S)C1COc2ccccc2O1 (centres undefined)	inconclusive: 26.7 µM [inhibitor, partial curve]	
Cc1cc(C(F)(F)F)nc(SCCN2CCOCC2)c1C#N	inconclusive: 23.8 µM [inhibitor, partial curve]	
O=C(N/N=C/C=C/c1ccco1)/C(=C/c1ccccc1)NC(=O)c1ccccc1	active: 29.9 µM	
O=C(NCc1cccs1)C1CCCN(S(=O)(=O)c2cccc3cccnc23)C1 (centres undefined)	inconclusive: 26.7 µM [inhibitor, single point]	
COc1ccccc1NC(=O)c1cccc2c(Br)cccc12		inactive: -4.75%
O=[N+]([O-])c1cccc(S(=O)(=O)Nc2nc3ccccc3nc2Nc2cccc(S(=O)(=O)N3CCCCC3)c2)c1	active: 23.8 µM	
COc1ccccc1NC(=O)/C=C\c1ccco1	inconclusive: 21.2 µM [inhibitor, single point]	
COC(=O)CCC(=O)OC1(C)C(=O)C=C2C=C(c3ccsc3)OC=C2C1=O (centres undefined)	inconclusive: 21.2 µM [inhibitor, partial curve]	
COc1ccc(-n2c(NC(=O)c3ccco3)c(C#N)c3nc4ccccc4nc32)cc1	inconclusive: 21.2 µM [inhibitor, partial curve]	
CC(=O)N(CC1CCCO1)C1(C(=O)NC2CCCC2)CCCCC1 (centres undefined)	inconclusive: 26.7 µM [inhibitor, partial curve]	
CC(C(=O)NC1CCCc2ccccc21)N1CCN(c2ccc(F)cc2)CC1 (centres undefined)		inactive: -8.54%
COc1cc(NS(=O)(=O)c2cccc3nsnc23)cc(OC)c1		inactive: -9.65%
COc1cccc(Nc2nc(-c3cccc(N4C(=O)c5ccccc5C4=O)c3)cs2)c1	inconclusive: 67 µM [inhibitor, partial curve]	

Source: PubChem BioAssay AID720504 (National Center for Advancing Translational Sciences (NCATS), 2013)
